Source: PubChem BioAssay AID2685 (National Center for Advancing Translational Sciences (NCATS), 2010)
Some of the results follow. These are further read-outs of the screen, such as a control signal, another cell line or another target. No call is given for them. Compounds called inactive in the main read-out are mostly missing here. The note in brackets gives the kind of curve behind each potency; many fits are weak.

Assay: qHTS Assay for Lipid Storage Modulators in Drosophila S3 Cells;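 as to cell number change: cells counted by Cell Tracker Red CMTPX staining in the red channel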
Conditions: BODIPY lipid droplet fluorescence, 18-24 h; for cell number change: measured here: cell count max response, cells fed with added oleic acid
Summary of the method: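 Laser-scanning cytometry quantifies lipid droplet accumulation (500–530 nm total intensity; droplet/cell object ratio) in oleic acid-fed (400 uM added) Drosophila S3 cells treated with a concentration series. 20 uM Triacsin C defined 100% inhibition.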

[1] = measured here: lipid fluorescence (Fed channel) AC50, cells fed with added oleic acid
[2] = measured here: cell number channel AC50, cells fed with added oleic acid

Compound | cell number change [%] | AC50 [1] | AC50 [2]
CN(C)S(=O)(=O)c1ccc(N2CCCC2)c(C(=O)Nc2nc3c(ccc4ccccc43)s2)c1 | 22.2 | 29.1 µM [rising, single point] | 
CC(NS(=O)(=O)c1cccc(S(=O)(=O)c2ccccc2)c1)C(=O)O (centres undefined) | -9.77 | 0.82 µM [falling, full curve, poor fit] | 
O=C(c1cc2ccccc2oc1=O)N(c1ccc(Cl)cc1)C1C=CS(=O)(=O)C1 (centres undefined) | 3.51 | 0.231 µM [falling, full curve, poor fit] | 5.8 µM [falling, single point]
COc1ccc(Cl)c2sc(N3CCN(C(=O)C4=COCCO4)CC3)nc12 | -13.2 | 25.9 µM [rising, single point] | 
COc1cccc(CNC(=O)CCS(=O)(=O)c2ccc3c(c2)oc(=O)n3C)c1 | 21 | 29.1 µM [rising, partial curve, poor fit] | 
CN(C)CCN1C(=O)c2oc3ccc(Cl)cc3c(=O)c2C1c1cccc(Br)c1 (centres undefined) |  |  | 6.51 µM [rising, single point]
Cc1cc(C(F)(F)F)c2c(N)c(C(=O)Nc3cc(C)on3)sc2n1 | 57.4 | 0.731 µM [rising, partial curve] | 0.058 µM [rising, full curve, poor fit]
CC(C)=CC(=O)N1CCCC(N2CCN(c3ccccc3C)CC2)C1 (centres undefined) | 34.8 | 0.58 µM [rising, single point] | 29.1 µM [rising, single point]
Cc1cccc(C(=O)OCC(=O)NN2C(=O)NC3(CCC(C)CC3)C2=O)c1O (centres undefined) | -17.7 | 6.51 µM [falling, single point] | 
CCCCN(CCO)CCCC | 7.23 |  | 0.651 µM [rising, partial curve]
O=C(CCCOc1ccccc1)Nc1ncccn1 | 32.7 |  | 29.1 µM [rising, single point]
COC(=O)C1C(C(C)C)N(c2ccccc2)OC1(C)O (centres undefined) | 1.26 |  | 
COc1ccc([C@H]2CC(=O)C=C(c3cccc(CO)c3)C2)cc1OC | -31.4 |  | 11.6 µM [falling, partial curve, poor fit]
O=C(NCCCN1CCOCC1)c1ccc(NS(=O)(=O)c2cccc([N+](=O)[O-])c2)cc1 | -4.42 |  | 
O=C(NCCc1ccccc1)C1CCN(C(=O)c2ccc([N+](=O)[O-])cc2)CC1 | 17.1 | 1.64 µM [falling, partial curve] | 
O=C(c1ccco1)N1CCCC(c2nc3c(nnn3Cc3ccc(F)cc3)c(=O)[nH]2)C1 (centres undefined) | 8.7 |  | 
CCCCC(=O)Nc1cccc(NC(=O)c2cccc([N+](=O)[O-])c2)c1 | 29.9 | 0.206 µM [rising, full curve, poor fit] | 0.103 µM [rising, full curve]
COc1ccc(CNc2nc3nc(C)cc(C)n3n2)cc1OC |  |  | 0.291 µM [rising, partial curve, poor fit]
COCCOc1ccc(C(F)(F)F)cc1NC(=O)COC(=O)c1cc[n+]([O-])cc1 |  |  | 2.06 µM [rising, partial curve]
Fc1ccc(Nc2ccc3ccccc3n2)c(F)c1 | 1.9 | 29.1 µM [falling, single point] | 

Part of the list above, in CSV form.
Compound,cell number change [%],AC50 [1],AC50 [2]
CC(C)=CC(=O)N1CCCC(N2CCN(c3ccccc3C)CC2)C1 (centres undefined),34.8,"0.58 µM [rising, single point]","29.1 µM [rising, single point]"
Cc1cccc(C(=O)OCC(=O)NN2C(=O)NC3(CCC(C)CC3)C2=O)c1O (centres undefined),-17.7,"6.51 µM [falling, single point]",
CCCCN(CCO)CCCC,7.23,,"0.651 µM [rising, partial curve]"
O=C(CCCOc1ccccc1)Nc1ncccn1,32.7,,"29.1 µM [rising, single point]"
COC(=O)C1C(C(C)C)N(c2ccccc2)OC1(C)O (centres undefined),1.26,,
COc1ccc([C@H]2CC(=O)C=C(c3cccc(CO)c3)C2)cc1OC,-31.4,,"11.6 µM [falling, partial curve, poor fit]"
O=C(NCCCN1CCOCC1)c1ccc(NS(=O)(=O)c2cccc([N+](=O)[O-])c2)cc1,-4.42,,
O=C(NCCc1ccccc1)C1CCN(C(=O)c2ccc([N+](=O)[O-])cc2)CC1,17.1,"1.64 µM [falling, partial curve]",
O=C(c1ccco1)N1CCCC(c2nc3c(nnn3Cc3ccc(F)cc3)c(=O)[nH]2)C1 (centres undefined),8.7,,
CCCCC(=O)Nc1cccc(NC(=O)c2cccc([N+](=O)[O-])c2)c1,29.9,"0.206 µM [rising, full curve, poor fit]","0.103 µM [rising, full curve]"
COc1ccc(CNc2nc3nc(C)cc(C)n3n2)cc1OC,,,"0.291 µM [rising, partial curve, poor fit]"

(continued)

Compound | cell number change [%] | AC50 [1] | AC50 [2]
CC(Oc1ccc(F)cc1)C(=O)Nc1sc2c(c1C(=O)NCc1cccnc1)CCCC2 (centres undefined) |  | 29.1 µM [falling, partial curve, poor fit] | 
CCCNC(=O)CN1C(=O)NC(CC)(c2ccc(F)cc2)C1=O (centres undefined) | -4.5 | 0.58 µM [rising, single point] | 
CCOC(=O)N1CCN(C(=O)C(=O)c2cn(CC(=O)N3CCCCCC3)c3ccccc23)CC1 | 7.35 | 29.1 µM [falling, partial curve, poor fit] | 
CCn1c(SCC(=O)NC2CCCCC2)nnc1-c1cccnc1 | -4.97 | 29.1 µM [rising, single point] | 
CCN1C(=O)[C@H]2[C@@H](c3ccc(C)cc3)N3C(=O)N(c4cccc(Br)c4)C(=O)[C@@]3(CC)[C@H]2C1=O | -15.6 | 6.51 µM [rising, single point] | 
COc1ccc(C)cc1C1=Nc2ccccc2C1(C)C | 11.6 | 6.51 µM [rising, partial curve] | 
COC(=O)C1=C(O)/C(=C\c2ccc(O)c(OC)c2)N=C1C | -1.4 | 6.51 µM [falling, single point] | 0.082 µM [falling, full curve, poor fit]
N#Cc1ccc(C(=O)Nc2ccc([N+](=O)[O-])cc2)c(F)c1 | -22.7 | 20.6 µM [falling, partial curve, poor fit] | 
Cc1ccccc1C(=O)NCCNc1ccc([N+](=O)[O-])cc1 | 18.5 |  | 
O=C1C=C(c2cccc(Cl)c2)C[C@@H](c2ccc(F)cc2)C1 | -9.39 | 0.146 µM [rising, full curve, poor fit] | 
Cc1nc(N)sc1N=Nc1c(C)n(C)n(-c2ccccc2)c1=O | 13.4 | 3.66 µM [rising, partial curve, poor fit] | 
OC(C#CCN1CCCCC1)(c1ccccc1)c1ccccc1 | -21.3 |  | 
Cc1cc(C(=O)Nc2ccc(Nc3ccccc3)cc2)ccc1[N+](=O)[O-] | -50.4 |  | 16.4 µM [falling, single point]
O=C(NC(NC(=S)N1CCOCC1)C(Cl)(Cl)Cl)c1cccc2ccccc12 (centres undefined) | -34 | 1.84 µM [falling, full curve, poor fit] | 7.31 µM [falling, partial curve, poor fit]
CC(/C=N/NC(=O)c1cc(-c2ccncc2)nc2ccccc12)=C\c1ccco1 | 0.779 |  | 
O=C(Nc1ccccc1F)Nc1ccccc1Br | 103 |  | 16.4 µM [rising, partial curve]
COCCNC(=O)c1cc(-c2ccc3c(c2)OCO3)on1 | 9.08 |  | 
CCCOc1ccc(/C=N/NC(=O)c2ccc(Cn3cc([N+](=O)[O-])cn3)o2)cc1 | -3.46 |  | 0.00517 µM [falling, full curve, poor fit]
COc1ccc(S(=O)(=O)NCC(c2cccnc2)N2CCN(c3ccccc3)CC2)cc1C (centres undefined) |  | 23.1 µM [rising, partial curve] | 2.31 µM [rising, partial curve]
CN(C(=O)COC(=O)c1ccc[nH]c1=O)C1CCCCC1 | -9.34 |  | 0.731 µM [rising, single point]

Compound | cell number change [%] | AC50 [1] | AC50 [2]
Cc1ccc(NC(=O)c2cccc(C(=O)Nc3ccc(C)c(C)c3)n2)cc1C | -2.37 | 0.164 µM [falling, full curve, poor fit] | 3.26 µM [rising, partial curve]
COc1cccc(-c2ccc(C#N)c(=O)[nH]2)c1 |  |  | 6.51 µM [rising, single point]
CCNc1nc(NCC)nc(SCCOC(=O)COc2ccc(Cl)cc2Cl)n1 | 16.5 | 29.1 µM [falling, single point] | 
[O-][n+]1onc2c1CCC1N(O)C(c3ccccc3)CC21O (centres undefined) | -3.85 | 0.0651 µM [falling, full curve] | 
CCCOC(=O)C(C)n1cnc2sc(C)c(C)c2c1=O (centres undefined) | 46.4 | 0.58 µM [rising, single point] | 
COc1cccc(C(=O)Nc2ccccc2C(=O)N2CCCC2)c1 | 5.82 | 6.51 µM [falling, single point] | 
COc1cccc(NC(=O)Cn2c(=O)n(CCCC(=O)NCc3ccco3)c(=O)c3ccccc32)c1 | -3.06 |  | 
CC1CC(C)CN(CCCNC(=O)c2cn(C)c3ccc(S(=O)(=O)N4CCCC4)cc3c2=O)C1 (centres undefined) | -11.2 | 6.51 µM [falling, partial curve, poor fit] | 
Cc1cc(C)c2c(n1)nn1c(NCCN3CCOCC3)cc(C)nc21 | 15.9 | 29.1 µM [rising, single point] | 
Cc1ccc(S(=O)(=O)N2CCOCC2)cc1C(=O)NC1CCCC1 | 21.2 | 0.13 µM [rising, full curve, poor fit] | 
O=C(Nc1ccc(F)cc1)N(CCCN1CCOCC1)Cc1cc2cc3c(cc2[nH]c1=O)OCCO3 |  | 0.517 µM [rising, partial curve, poor fit] | 
CCOC(=O)c1c(NC(=O)c2cc(C(C)C)on2)sc(C(C)=O)c1C |  | 5.8 µM [rising, single point] | 
CCOC(=O)CN1C(=O)C(Sc2n[nH]c(-c3ccccc3)n2)CCc2ccccc21 (centres undefined) | 33.1 |  | 18.4 µM [rising, single point]
CN1Cc2cc(C(=O)c3cc(Cl)cc(CSc4ncccn4)c3O)cnc2NC1=O | 1.99 | 0.92 µM [rising, full curve, poor fit] | 
CC12CCC(C(=O)NCc3ccco3)(OC1=O)C2(C)C (centres undefined) | -24 | 1.64 µM [falling, full curve] | 
O=C(CN1C(=O)C2C3C=CC(C3)C2C1=O)Nc1ccc(F)cc1 (centres undefined) | -18 |  | 
CCOC(=O)C1CCCCN1Cc1ccc(-c2ccccc2)cc1 (centres undefined) | 25.3 | 29.1 µM [rising, single point] | 
CC(=O)OCC1OC(n2ccc3ccccc32)C(OC(C)=O)C(OC(C)=O)C1OC(C)=O (centres undefined) |  | 4.11 µM [rising, single point] | 
Cc1c(C(=O)NNC(=O)Nc2ccc([N+](=O)[O-])cc2)oc2ccccc12 | 34.4 | 0.112 µM [falling, full curve, poor fit] | 35.5 µM [rising, single point]
